Structures can show the parent of a compound that is named as a salt. This is one part of the list. Hit calls seldom repeat between salt and free forms of one compound.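 In K562 cells expressing nanoluciferase-fused kinases, luminescence was recorded at 4 h intervals between 2 and 18 h, normalized as percent of control with DMSO at 100% and a positive control at 0%. A significant (2 sigma) signal drop marks a time point as decreased. The authors' rule for a hit is not shown and takes in more than the number of time points.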
target: CAMK2A (UniProt Q9UQM7); assay: number of time points (of 5) at which kinase-Nluc abundance scored as decreased, DMSO-normalised (count); higher = more persistent destabilization; details: K562; 2-18 h

Sequences of proteins named here, by UniProt entry; tags and fusion partners are left off.
UniProt Q9UQM7, whole entry: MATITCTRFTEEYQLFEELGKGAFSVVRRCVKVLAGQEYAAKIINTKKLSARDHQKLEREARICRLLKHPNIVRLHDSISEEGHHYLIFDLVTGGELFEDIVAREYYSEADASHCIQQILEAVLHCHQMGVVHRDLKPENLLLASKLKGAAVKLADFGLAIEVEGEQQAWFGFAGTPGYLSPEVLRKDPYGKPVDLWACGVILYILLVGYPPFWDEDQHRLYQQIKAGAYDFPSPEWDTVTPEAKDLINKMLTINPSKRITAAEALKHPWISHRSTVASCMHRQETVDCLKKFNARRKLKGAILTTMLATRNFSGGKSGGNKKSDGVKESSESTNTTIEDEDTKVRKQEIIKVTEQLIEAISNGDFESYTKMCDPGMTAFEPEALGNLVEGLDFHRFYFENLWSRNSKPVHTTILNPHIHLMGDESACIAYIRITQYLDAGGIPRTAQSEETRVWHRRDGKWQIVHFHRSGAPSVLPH

| Structure (SMILES) | number of time points |
| --- | --- |
| Cn1c(N2CCO[C@@H](c3ccc(F)cc3)C2)nc(-c2ccncn2)cc1=O (10 µM) | 0 |
| C[C@@H](NC(=O)c1ncnc(N)c1Cl)c1ncc(C(=O)Nc2cc(C(F)(F)F)c(Cl)cn2)s1 (2.5 µM) | 0 |
| CO/N=C1/C(c2c(O)[nH]c3cc(Cl)c(Cl)cc23)=Nc2ccccc21 (10 µM) | 0 |
| Cc1n[nH]c2ncc(C(=O)N3CCC[C@H]3c3ccc(Cl)cc3)cc12 (10 µM) | 0 |
| Cc1ccc(Nc2cc(N[C@@H]3CCCC[C@@H]3N)nnc2C(N)=O)nc1C (2 µM) | 0 |
| NC(=O)c1cnc(N[C@@H]2CCCC[C@@H]2N)nc1Nc1cccc(-n2nccn2)c1 (2.5 µM) | 0 |
| CCc1c(C(=O)NNC(=O)[C@H](O)c2cc(F)cc(F)c2)ccc(O)c1C (10 µM) | 0 |
| CC/C(=C(\c1ccccc1)c1ccc(OCCNC)cc1)c1ccccc1 [N-Desmethyltamoxifen (hydrochloride)] (2.5 µM) | 0 |
| CCCCNc1ncc(C(=O)NCc2ccc(-n3ccnc3)cc2)c(NC2CCC(O)CC2)n1 (stereo not drawn) (10 µM) | 0 |
| Oc1ccc(-c2cnc3ccc(NCc4ccco4)nn23)cc1 [IRAK inhibitor 2] (2.5 µM) | 0 |
| CS(=O)(=O)c1ccc([C@@H](CC2CCCC2)C(=O)Nc2nccs2)cc1 (10 µM) | 0 |
| CC(=O)O/N=C1/C(c2c(O)[nH]c3cc(Br)ccc23)=Nc2ccccc21 [BIO-acetoxime] (10 µM) | 0 |
| COc1cc2nc(-c3cc(F)ccc3O)nc(N[C@@H]3CNC[C@H]3C(C)(C)O)c2cc1OC (2.5 µM) | 0 |

Some values from the entries so far.
For number of time points, `Cn1c(N2CCO[C@@H](c3ccc(F)cc3)C2)nc(-c2ccncn2)cc1=O` (10 µM) shows 0
For number of time points, `CO/N=C1/C(c2c(O)[nH]c3cc(Cl)c(Cl)cc23)=Nc2ccccc21` (10 µM) shows 0

— the supplement of paper PMC12823440, “Inhibitors supercharge kinase turnover through native proteolytic circuits” (Nature, 2025)
